In US8410078B2, “Composition and methods to treat cardiac diseases” (University of Connecticut, priority 2006, dated 2013):
At least one structure is not confirmed: it was looked up by name or label, or the drawing left a doubt.

Tested on: mouse thoracic aorta ring
Assay: Vascular reactivity of phenylephrine-preconstricted thoracic aorta rings
Settings: pre-constricted with phenylephrine, 10^−9 to 10^−5 M
Procedure: Thoracic aortas were quickly removed from 8 to 10-week wild type (C57 BL6) mice, cut into 3 mm rings. After pre-constriction with phenylephrine (1 μM), increasing concentrations of acetylcholine or MRS2339 were added in a cumulative fashion to achieve a concentration-response curve. The % relaxation was determined as % decrease in ring tension (gram) compared to the tension before the addition of acetylcholine or MRS2339. Data were shown as mean±SEM.

CC(=O)OCC[N+](C)(C)C [acetylcholine]
Relaxation of aorta ring segments: dose-dependent relaxation
